Measurements from patent US10857107B2, “Cannabinoid-containing complex mixtures for the treatment of mast cell-associated or basophil-mediated inflammatory disorders” (priority 2017, dated 2020).
Some of these results come from one statement about several compounds together.

System: mast cells (from a mast cell line, RBL2H3)
Assay: FcεRI ligation-induced mast cell degranulation measured by histamine release (ELISA)
Type: cell-based
Settings: individual compound alone at 10 μM
Protocol: For the FcεRI assay, mast cells (from a mast cell line, RBL2H3) were plated in cluster plates at 5×10^4 cells/well. Monolayers were washed and incubated in 200 μl Tyrode's buffer. The mast cells were then primed with 1 μg/ml IgE-anti-DNP antibodies for 16 hours. The cells were then washed three times and a cannabinoid-containing complex mixture, prepared as above-described, was applied. The tested complex mixtures were applied in an amount calculated to expose the mast cells to 10 μM of cannabidiol and 10 μM of each minor cannabinoid or terpene component. Control for maximal FcεRI ligation-induced degranulation included no cannabinoid-containing complex mixture.
After 10 minutes, 250 ng/ml of DNP-BSA was applied to ligate FcεRI molecules on the mast cell surface.
Mast cell culture medium was collected 60 minutes after exposure to DNP-BSA with or without a tested cannabinoid-containing complex mixture. […]
Mast cell degranulation for each tested complex mixture was measured based on the amount of histamine release and is presented as % histamine release compared to histamine release in response to PMA/Ionomycin (100%). […]
Anti-inflammatory effects of (i) each major cannabinoid, (ii) each minor cannabinoid, and (iii) each selected terpene, were assessed based on their inhibition of FcεRI-induced mast cell degranulation by measuring histamine release as described above. […]

C=C(C)[C@@H]1CCC(C)=C[C@H]1c1c(O)cc(CCCCC)cc1O [cannabidiol, reference compound]
% inhibition of FcεRI-induced degranulation (reduction of histamine secretion): ≤ 20%
